Assay results as given in PMC6597245.
These are yes or no findings as the source states them, for the method shown. In cells and extracts the contact can be indirect. Some entries that bind do so weakly or less than the wild type.

Chains of the proteins cited; added tags and fusions are not shown. Lines headed by an entry give the natural chain unless they say otherwise; changes in a name come on top.
UniProt Q8IWT6: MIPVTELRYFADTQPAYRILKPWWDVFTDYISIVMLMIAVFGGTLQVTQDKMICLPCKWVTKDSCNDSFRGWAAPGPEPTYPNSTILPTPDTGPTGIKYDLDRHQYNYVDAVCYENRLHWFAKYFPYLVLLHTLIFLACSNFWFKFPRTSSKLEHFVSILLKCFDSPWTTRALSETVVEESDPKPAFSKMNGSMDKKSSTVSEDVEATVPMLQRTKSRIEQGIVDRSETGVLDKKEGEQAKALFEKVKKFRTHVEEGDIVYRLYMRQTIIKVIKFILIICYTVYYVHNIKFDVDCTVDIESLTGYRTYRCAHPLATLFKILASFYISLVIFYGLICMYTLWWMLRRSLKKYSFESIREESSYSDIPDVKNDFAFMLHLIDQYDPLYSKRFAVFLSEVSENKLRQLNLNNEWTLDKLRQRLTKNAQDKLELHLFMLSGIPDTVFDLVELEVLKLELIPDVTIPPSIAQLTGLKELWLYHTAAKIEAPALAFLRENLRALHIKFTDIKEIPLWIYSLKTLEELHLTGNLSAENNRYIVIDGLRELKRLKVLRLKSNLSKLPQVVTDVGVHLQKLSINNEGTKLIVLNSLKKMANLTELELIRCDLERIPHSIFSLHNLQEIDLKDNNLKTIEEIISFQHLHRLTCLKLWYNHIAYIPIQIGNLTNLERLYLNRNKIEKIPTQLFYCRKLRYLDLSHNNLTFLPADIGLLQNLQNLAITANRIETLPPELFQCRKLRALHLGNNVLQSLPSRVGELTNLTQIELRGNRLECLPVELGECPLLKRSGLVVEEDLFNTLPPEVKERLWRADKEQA
UniProt Q6NSJ5: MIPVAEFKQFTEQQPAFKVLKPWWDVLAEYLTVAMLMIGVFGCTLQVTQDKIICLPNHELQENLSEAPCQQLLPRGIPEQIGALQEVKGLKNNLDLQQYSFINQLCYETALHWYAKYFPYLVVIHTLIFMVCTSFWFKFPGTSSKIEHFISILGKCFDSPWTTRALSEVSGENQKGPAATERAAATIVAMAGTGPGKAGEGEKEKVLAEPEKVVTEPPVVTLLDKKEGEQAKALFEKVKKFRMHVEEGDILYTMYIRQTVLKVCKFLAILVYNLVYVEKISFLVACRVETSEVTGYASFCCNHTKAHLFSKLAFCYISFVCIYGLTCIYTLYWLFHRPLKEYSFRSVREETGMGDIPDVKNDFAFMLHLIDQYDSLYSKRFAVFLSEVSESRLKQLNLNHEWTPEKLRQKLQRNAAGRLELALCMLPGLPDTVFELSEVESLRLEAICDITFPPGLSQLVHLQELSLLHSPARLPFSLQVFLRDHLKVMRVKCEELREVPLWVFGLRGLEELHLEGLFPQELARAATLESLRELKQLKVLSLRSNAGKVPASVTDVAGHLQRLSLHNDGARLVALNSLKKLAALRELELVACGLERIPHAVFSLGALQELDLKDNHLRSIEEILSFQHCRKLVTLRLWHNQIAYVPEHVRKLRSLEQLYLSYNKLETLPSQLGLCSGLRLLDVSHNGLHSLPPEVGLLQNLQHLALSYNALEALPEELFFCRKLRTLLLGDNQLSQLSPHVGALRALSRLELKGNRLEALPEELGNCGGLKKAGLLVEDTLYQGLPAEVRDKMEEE

How the values were obtained:
LRRC8A-CFP (human) [1] = biological target: LRRC8A-CFP (human) (UniProt Q8IWT6); experiment: FRET or BRET; sensitized-emission FRET (cFRET) in live HeLa or HEK293 cells co-expressing the CFP- and YFP-tagged proteins; room temperature; isotonic (340 mOsm) and hypotonic (250 mOsm) buffer; for A-CFP-FM2 10, 80 or 165 min after 0.5 µM D/D solubilizer
LRRC8A-CFP-FM2 (human) = LRRC8A-CFP-FM2 (human) (UniProt Q8IWT6); experiment: as above
[2] = biological target: LRRC8A^N66A,N83A-CFP (human) (UniProt Q8IWT6); experiment: as above
LRRC8A-CFP (human) [3] = biological target: LRRC8A-CFP (human) (UniProt Q8IWT6); experiment: FRET or BRET; acceptor photo-bleaching FRET in live HeLa cells co-expressing the CFP- and YFP-tagged proteins; YFP bleached with 515-560 nm light, change of CFP intensity against unbleached cells in the same field of view; room temperature, isotonic imaging buffer pH 7.4; without BFA, or with 5 µg/ml BFA during expression (proteins trapped in the ER)
LRRC8A-YFP (human) = LRRC8A-YFP (human) (UniProt Q8IWT6); experiment: as above
LRRC8A-Cerulean (human) = LRRC8A-Cerulean (human) (UniProt Q8IWT6); experiment: FRET or BRET; sensitized-emission FRET (cFRET) with simultaneous whole-cell patch clamp (patch-clamp fluorometry) in HEK293 KO cells deficient for all five LRRC8 genes, Cerulean/Venus pair; isotonic and hypotonic bath solution

Q: With LRRC8E-YFP (from UniProt Q6NSJ5 1-796) as the substance, how does the binding (LRRC8A-CFP (human) [1]) read?
A: binds

Q: What about the binding (LRRC8A-CFP-FM2 (human)) of the same substance?
A: binds

Q: What about the binding [2] of the same substance?
A: binds

Q: What about the binding (LRRC8A-CFP (human) [3]) of the same substance?
A: binds

Q: Which binding (LRRC8A-YFP (human)) does the source give for LRRC8E-CFP (from UniProt Q6NSJ5 1-796) here?
A: binds

Q: Which binding (LRRC8A-Cerulean (human)) does the source give for “LRRC8E-Venus (from UniProt Q6NSJ5 1-796)” here?
A: binds
